# Some of the results follow.
# B1: Nc3LysM-2 (protein)
# chain: AHVLQARQSVSCDFATAANTGDTCASFAAAWGITEAAFAKLNPGVSCPGNLIAGSEYCVIGTVSTGAPTTTKAATTSTTPPTTTTTTKATTLSTSTTSVSPTGPSPQMPSITSTCNKFYQVQSGDGCWSIEQAQGVSASDFMAWNKAVDAQCDNLWLGYYVCVGVKGGSSPPPTTTTKPASSSAPTPQMPNTVSNCKKFHKVVSGDGCWAIEQAAGISASDFAKWNPYVDAACDNLWLGYYVCIGV
# Experiments:
# Assay in all cases: glycan array binding signal (z-score within array); higher = stronger binding
# Conditions in all cases: glycan notation: IUPAC condensed, linker removed
# [1] = target: Man(a1-3)[Man(a1-6)]Man(a1-6)[Man(a1-3)]Man
# Method in brief: (§1)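 Glycan array binding is given as a within-array Z-score, which can be read as non-binding when negative. The arrays, 3228 of them, came from the Consortium for Functional Glycomics database and were retained only where the protein sequence was available. Z-scores were averaged across arrays of the same protein sequence at different concentrations or buffers and across linkers.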
# [2] = target: Man(a1-3)[Man(a1-6)]Man(a1-6)[Man(a1-3)]Man(b1-4)GlcNAc(b1-4)GlcNAc
# Method in brief: as §1
# [3] = target: Man(a1-3)[Man(a1-6)]Man(b1-4)GlcNAc(b1-4)GlcNAc
# Method in brief: as §1
# [4] = target: Man(a1-3)[Man(a1-6)]Man(b1-4)GlcNAc(b1-4)[Fuc(a1-6)]GlcNAc
# Method in brief: as §1
# [5] = target: Man(a1-6)Man
# Method in brief: as §1
# [6] = target: Man(b1-4)GlcNAc
# Method in brief: as §1
# [7] = target: MurNAc(b1-4)GlcNAc
# Method in brief: as §1
# [8] = target: Neu5Ac(a2-3)Gal
# Method in brief: as §1
# [9] = target: Neu5Ac(a2-3)Gal(b1-3)GalNAc
# Method in brief: as §1
# [10] = target: Neu5Ac(a2-3)Gal(b1-3)GalNAc(b1-3)Gal(a1-4)Gal(b1-4)Glc
# Method in brief: as §1
# [11] = target: Neu5Ac(a2-3)Gal(b1-3)GalNAc(b1-4)Gal(b1-4)Glc
# Method in brief: as §1
# [12] = target: Neu5Ac(a2-3)Gal(b1-3)GalNAc(b1-4)[Neu5Ac(a2-3)]Gal(b1-4)Glc
# Method in brief: as §1
# [13] = target: Neu5Ac(a2-3)Gal(b1-3)GalNAc(b1-4)[Neu5Ac(a2-8)Neu5Ac(a2-3)]Gal(b1-4)Glc
# Method in brief: as §1
# [14] = target: Neu5Ac(a2-3)Gal(b1-3)GalNAc6S
# Method in brief: as §1
# [15] = target: Neu5Ac(a2-3)Gal(b1-3)GlcNAc
# Method in brief: as §1
# [16] = target: Neu5Ac(a2-3)Gal(b1-3)GlcNAc(b1-2)Man
# Method in brief: as §1
# [17] = target: Neu5Ac(a2-3)Gal(b1-3)GlcNAc(b1-2)Man(a1-3)[GlcNAc(b1-4)][Neu5Ac(a2-3)Gal(b1-3)GlcNAc(b1-2)Man(a1-6)]Man(b1-4)GlcNAc(b1-4)GlcNAc
# Method in brief: as §1
# [18] = target: Neu5Ac(a2-3)Gal(b1-3)GlcNAc(b1-2)Man(a1-3)[Neu5Ac(a2-3)Gal(b1-3)GlcNAc(b1-2)Man(a1-6)]Man(b1-4)GlcNAc(b1-4)GlcNAc
# Method in brief: as §1
# [19] = target: Neu5Ac(a2-3)Gal(b1-3)GlcNAc(b1-2)[Neu5Ac(a2-3)Gal(b1-3)GlcNAc(b1-4)]Man(a1-6)[Neu5Ac(a2-3)Gal(b1-3)GlcNAc(b1-2)Man(a1-3)]Man(b1-4)GlcNAc(b1-4)GlcNAc
# Method in brief: as §1
# [20] = target: Neu5Ac(a2-3)Gal(b1-3)GlcNAc(b1-3)Gal(b1-3)GlcNAc
# Method in brief: as §1
# [21] = target: Neu5Ac(a2-3)Gal(b1-3)GlcNAc(b1-3)Gal(b1-4)GlcNAc
# Method in brief: as §1
# [22] = target: Neu5Ac(a2-3)Gal(b1-3)GlcNAc(b1-3)GalNAc
# Method in brief: as §1
# [23] = target: Neu5Ac(a2-3)Gal(b1-3)GlcNAc(b1-6)GalNAc
# Method in brief: as §1
# [24] = target: Neu5Ac(a2-3)Gal(b1-3)GlcNAc6S
# Method in brief: as §1
# [25] = target: Neu5Ac(a2-3)Gal(b1-3)[Fuc(a1-4)]GlcNAc
# Method in brief: as §1
# [26] = target: Neu5Ac(a2-3)Gal(b1-3)[Fuc(a1-4)]GlcNAc(b1-3)Gal(b1-3)[Fuc(a1-4)]GlcNAc
# Method in brief: as §1
# [27] = target: Neu5Ac(a2-3)Gal(b1-3)[Fuc(a1-4)]GlcNAc(b1-3)Gal(b1-4)[Fuc(a1-3)]GlcNAc
# Method in brief: as §1
# [28] = target: Neu5Ac(a2-3)Gal(b1-3)[GlcNAc(b1-6)]GalNAc
# Method in brief: as §1
# [29] = target: Neu5Ac(a2-3)Gal(b1-3)[Neu5Ac(a2-6)]GalNAc
# Method in brief: as §1
# [30] = target: Neu5Ac(a2-3)Gal(b1-3)[Neu5Ac(a2-6)]GlcNAc(b1-3)[Fuc(a1-3)[Gal(b1-4)]GlcNAc(b1-6)]Gal(b1-4)Glc
# Method in brief: as §1
# [31] = target: Neu5Ac(a2-3)Gal(b1-3)]Neu5Ac(a2-3)Gal(b1-4)]GlcNAc
# Method in brief: as §1
# [32] = target: Neu5Ac(a2-3)Gal(b1-4)Glc
# Method in brief: as §1
# [33] = target: Neu5Ac(a2-3)Gal(b1-4)GlcNAc
# Method in brief: as §1
# [34] = target: Neu5Ac(a2-3)Gal(b1-4)GlcNAc(b1-2)Man
# Method in brief: as §1
# [35] = target: Neu5Ac(a2-3)Gal(b1-4)GlcNAc(b1-2)Man(a1-3)[GlcNAc(b1-4)][Neu5Ac(a2-3)Gal(b1-4)GlcNAc(b1-2)Man(a1-6)]Man(b1-4)GlcNAc(b1-4)GlcNAc
# Method in brief: as §1
# [36] = target: Neu5Ac(a2-3)Gal(b1-4)GlcNAc(b1-2)Man(a1-3)[Neu5Ac(a2-3)Gal(b1-4)GlcNAc(b1-2)Man(a1-6)]Man(b1-4)GlcNAc(b1-4)GlcNAc
# Method in brief: as §1
# [37] = target: Neu5Ac(a2-3)Gal(b1-4)GlcNAc(b1-2)Man(a1-3)[Neu5Ac(a2-3)Gal(b1-4)GlcNAc(b1-2)Man(a1-6)]Man(b1-4)GlcNAc(b1-4)[Fuc(a1-6)]GlcNAc
# Method in brief: as §1
# [38] = target: Neu5Ac(a2-3)Gal(b1-4)GlcNAc(b1-2)Man(a1-3)[Neu5Ac(a2-6)Gal(b1-4)GlcNAc(b1-2)Man(a1-6)]Man(b1-4)GlcNAc(b1-4)GlcNAc
# Method in brief: as §1
binder,measurement,setting,value
B1,glycan array binding signal (z-score),[1],-0.186
same,glycan array binding signal (z-score),[2],-0.22
same,glycan array binding signal (z-score),[3],-1.25
same,glycan array binding signal (z-score),[4],0.411
same,glycan array binding signal (z-score),[5],0.852
same,glycan array binding signal (z-score),[6],1.42
same,glycan array binding signal (z-score),[7],-1.52
same,glycan array binding signal (z-score),[8],-0.674
same,glycan array binding signal (z-score),[9],0.707
same,glycan array binding signal (z-score),[10],0.381
same,glycan array binding signal (z-score),[11],-0.312
same,glycan array binding signal (z-score),[12],0.161
same,glycan array binding signal (z-score),[13],-0.18
same,glycan array binding signal (z-score),[14],0.208
same,glycan array binding signal (z-score),[15],0.767
same,glycan array binding signal (z-score),[16],0.324
same,glycan array binding signal (z-score),[17],-1.28
same,glycan array binding signal (z-score),[18],1.83
same,glycan array binding signal (z-score),[19],1.06
same,glycan array binding signal (z-score),[20],-0.311
same,glycan array binding signal (z-score),[21],-0.494
same,glycan array binding signal (z-score),[22],0.211
same,glycan array binding signal (z-score),[23],-0.33
same,glycan array binding signal (z-score),[24],1.62
same,glycan array binding signal (z-score),[25],0.142
same,glycan array binding signal (z-score),[26],1.39
same,glycan array binding signal (z-score),[27],0.418
same,glycan array binding signal (z-score),[28],-0.46
same,glycan array binding signal (z-score),[29],-0.397
same,glycan array binding signal (z-score),[30],-0.063
same,glycan array binding signal (z-score),[31],-0.285
same,glycan array binding signal (z-score),[32],-0.245
same,glycan array binding signal (z-score),[33],-0.62
same,glycan array binding signal (z-score),[34],0.06
same,glycan array binding signal (z-score),[35],0.63
same,glycan array binding signal (z-score),[36],1.03
same,glycan array binding signal (z-score),[37],-0.943
same,glycan array binding signal (z-score),[38],-0.348

# Some of the entries so far, bar-delimited.
binder | measurement | setting | value
B1 | glycan array binding signal (z-score) | [9] | 0.707
same | glycan array binding signal (z-score) | [10] | 0.381
